One may read the LD50 as the dose at which mortality reaches 50%.

The series can be described thus: in vivo. Particulars: mouse, ip. As for the experimental part: The mean lethal dose (LD50) was determined by the Litchfield and Wilcoxon method.

`COC(=O)C1=C(C)NC(C)=C(C(=O)OC)C1c1ccccc1[N+](=O)[O-]` [Nifedipine, 2,6-dimethyl-3,5-dimethoxycarbonyl-4-(O-nitrophenyl)-1,4-dihydropyridine]: the LD50 at 240 h amounted to 185 mg/kg.

Values taken from US4841054A, “2,6-dimethyl-3,5-dimethoxycarbonyl-4-(5'-tri methylsilyl-2'-furyl)-1,4-dihydropyridine” (priority 1988, dated 1989).
